The whole screen tested about 300,000 compounds, of which about 5,400 (1.8%) were called active. Inconclusive means that the source gave no clear call. Such entries were picked first, then a sample of the others. The call rests on the fitted dose curve; tested in HEK293 cells. Potencies of inconclusive entries are doubtful fits and often do not repeat.
Assay: qHTS for inhibitors of binding or entry into cells for Marburg Virus
Settings: Marburg virus pseudotyped entry inhibition, cell reporter; activity change, negative = inhibition: at 37.8 µM (top of the series) unless noted
On the % scale 0 is the no-effect control and ±100 the full control effect; potency means the concentration at half of the fitted maximal effect.

Structure (SMILES) | Potency | activity change, negative = inhibition
CCCCN(C)Cc1c(O)ccc2c(-c3ccccc3)cc(=O)oc12 | inconclusive: 0.0651 µM [inhibitor, full curve, poor fit] | 
CC1CCC(NC(=O)C2(C)Cc3ccccc3C(=O)N2Cc2ccc(F)cc2)CC1 (stereo not given) |  | inactive: 13% [at 46.1 µM]
CCc1ccc(C2Sc3ccccc3NC3=C2C(=O)c2ccccc23)cc1 (stereo not given) | inconclusive: 8.91 µM [inhibitor, partial curve, poor fit] | 
COc1ccc(NC(=O)c2sc3nc4c(cc3c2N)CN(Cc2ccccc2)CC4)cc1 | inconclusive: 14.1 µM [activator, single point] | 
CCc1nc2ccccc2c(C(=O)OCc2nc3ccccc3c(=O)[nH]2)c1C | active: 3.55 µM | 
Nc1ncnc(N2CCc3ccccc32)c1[N+](=O)[O-] |  | inactive: 21.4%
COCCN=C1NN=C(c2ccc(NC(C)=O)cc2)CS1 |  | inactive: -16.6% [at 46.1 µM]
CCSc1ncc(Cl)c(C(=O)Nc2c(C(=O)Nc3cccc(C)c3)oc3ccccc23)n1 | inconclusive: 1 µM [inhibitor, full curve, poor fit] | 
N/C(=N\OC(=O)CCc1ccccc1)c1ccc(Br)cc1 |  | inactive: 21%
COc1ccc(CCNC(=O)/C=C\c2ccccc2)cc1OC |  | inactive: 0.18%
Cc1ccc(NC(=O)Cc2c(F)cccc2Cl)cc1S(=O)(=O)N1CCOCC1 | inconclusive: 3.98 µM [activator, single point] | 
CSCCC(NC(=O)c1cccc(C)c1)C(=O)Nc1sccc1C(N)=O (stereo not given) | inconclusive: 35.5 µM [inhibitor, single point] | 
CCc1ccc2c(c1)cc(CN(C(=S)Nc1ccccc1)C1CC1)c1nnnn12 | inconclusive: 32.6 µM [inhibitor, partial curve, poor fit] | 
CCCOc1ccc(C(=O)CCNc2ccc(C)c(Cl)c2)cc1 |  | inactive: 12.8%
COc1cccc(NC2=C(NCCO)C(=O)c3ccccc3C2=O)c1 |  | inactive: 3.91% [at 46.1 µM]
O=C1NC(=S)S/C1=C\c1cc(Cl)ccc1Cl | inconclusive: 35.5 µM [inhibitor, single point] | 
COCCn1cc(C(=S)N2CCCCC2)c2ccccc21 |  | inactive: 8.12% [at 46.1 µM]
O=C1CCCC(O)=C1C=Nc1ccc(O)cc1 | inconclusive: 35.5 µM [inhibitor, single point] | 
COc1ccc2sc(N(CCCN(C)C)C(=O)c3ccc(S(=O)(=O)N4CCc5ccccc5C4)cc3)nc2c1 | inconclusive: 35.5 µM [inhibitor, partial curve, poor fit] | 
CCCCCN(C(=O)COC(=O)Cc1c(C)nc2ccccc2c1C)c1c(N)n(CCCC)c(=O)[nH]c1=O | inconclusive: 12.6 µM [activator, single point] | 
COc1cc(C(=O)n2nc(-c3ccco3)nc2NCc2ccc(Cl)cc2)cc(OC)c1OC | inconclusive: 1.41 µM [activator, full curve, poor fit] | 
CCOC(=O)C1CCN(Cc2cnc(Oc3ccc(OC)cc3)s2)CC1 |  | inactive: -10.8%
Cc1c(N=Cc2c(O)n(C3CCCCC3)c(=O)[nH]c2=O)c(=O)n(-c2ccccc2)n1C | inconclusive: 1.26 µM [inhibitor, single point] | 
CCCCc1nc2cc(C(=O)N3CCNC(=O)C3CC(=O)OC)ccc2o1 (stereo not given) |  | inactive: 13.4%

Structure (SMILES) | Potency | activity change, negative = inhibition
O=C(CCl)NC(=O)NC12CC3CC(CC(C3)C1)C2 | inconclusive: 35.5 µM [inhibitor, single point] | 
Clc1cccc(C2Nc3cccc4cccc(c34)N2)c1 |  | inactive: -1.65% [at 46.1 µM]
Cc1c(NC(=O)c2ccc(N3CCCC3)c([N+](=O)[O-])c2)cccc1-c1nc2ccccc2s1 | inconclusive: 0.517 µM [inhibitor, full curve, poor fit] | 
O=C(NNC(=O)C1CCCN(S(=O)(=O)c2ccc3ccccc3c2)C1)C1CC1 (stereo not given) | inconclusive: 0.562 µM [inhibitor, full curve, poor fit] | 
COc1ccc(NC(=O)c2c(C)oc3ccc(O)c(CN4CCCC4)c23)cc1Cl | inconclusive: 35.5 µM [inhibitor, single point] | 
COCCn1c(C)cc(C(=O)CSc2nnc(C)s2)c1C | inconclusive: 1.58 µM [inhibitor, full curve, poor fit] | 
CCN(CC)S(=O)(=O)c1ccc(N2CCCC2)c(NC(=O)c2ccc(N3CCCC3=O)cc2)c1 |  | inactive: -12.3%
CS(=O)(=O)N(CC(=O)Nc1ccc2c(c1)OCO2)Cc1ccccc1 |  | inactive: 15.9%
CCc1nnnn1-c1ccc([N+](=O)[O-])cc1C | inconclusive: 7.08 µM [activator, full curve, poor fit] | 
Cc1ccc(OCc2nc(-c3cccs3)no2)c([N+](=O)[O-])c1 | inconclusive: 3.16 µM [inhibitor, single point] | 
CCN(CC)CCn1c2ccccc2c2nc3ccc([N+](=O)[O-])cc3cc21 | inconclusive: 17.8 µM [inhibitor, partial curve, poor fit] | 
N/C(=N\OC(=O)C1CCCCC1)c1ccc(Br)cc1 | inconclusive: 12.6 µM [activator, partial curve, poor fit] | 
Cc1cccc(C)c1NC(=S)NC(C)CCc1ccccc1 (stereo not given) | inconclusive: 35.5 µM [inhibitor, single point] | 
Cc1cccc(NCc2nc3ccccc3n2CCOc2ccccc2C)c1 | inconclusive: 22.4 µM [inhibitor, single point] | 
COc1ccc([C@]23Cc4ccccc4[C@H](O2)c2c(cc(C)n(Cc4ccccc4)c2=O)O3)cc1 | inconclusive: 0.0237 µM [inhibitor, full curve, poor fit] | 
CCN(CC)c1ccc(NC(=O)c2ccc3c(c2)OCO3)cc1 | inconclusive: 3.55 µM [activator, partial curve, poor fit] | 
CCCCCCn1c(N2CCN(c3ccccc3)CC2)nc2c1c(=O)[nH]c(=O)n2C | inconclusive: 5.01 µM [inhibitor, full curve, poor fit] | 
Cc1ccc(OCc2cc(C(=O)NC(C)Cc3cccc(C)n3)no2)cn1 (stereo not given) | inconclusive: 3.55 µM [inhibitor, single point] | 
Cc1ccc(-n2c3nc(=O)n(C)c(=O)c-3cc3ccccc32)cc1 |  | inactive: 21.1% [at 46.1 µM]
Cc1ccccc1N1CCN(C2CCCN(C(=O)c3cc(C(C)C)[nH]n3)C2)CC1 (stereo not given) | inconclusive: 35.5 µM [inhibitor, single point] | 
Fc1cccc(/C=N/Nc2cc(N3CCOCC3)ncn2)c1 | inconclusive: 17.8 µM [inhibitor, single point] | 
CCC(=O)N1CCc2cc(S(=O)(=O)NCCC(=O)Nc3ccc(C)cc3)ccc21 |  | inactive: 15.2% [at 46.1 µM]
Cc1c(C)n2c(SCC(=O)N3CCCC3)nnc2[nH]c1=O | inconclusive: 6.31 µM [activator, single point] | 
CCC1c2ccc(C)n2CCN1C(=O)Nc1ccccc1OC (stereo not given) |  | inactive: 8.31%

3 entries picked at random from those above:
Structure (SMILES) | Potency | activity change, negative = inhibition
COCCn1c(C)cc(C(=O)CSc2nnc(C)s2)c1C | inconclusive: 1.58 µM [inhibitor, full curve, poor fit] | 
Cc1ccccc1N1CCN(C2CCCN(C(=O)c3cc(C(C)C)[nH]n3)C2)CC1 (stereo not given) | inconclusive: 35.5 µM [inhibitor, single point] | 
Cc1cccc(NCc2nc3ccccc3n2CCOc2ccccc2C)c1 | inconclusive: 22.4 µM [inhibitor, single point] | 

(next part)

Structure (SMILES) | Potency | activity change, negative = inhibition
CCN(CC)c1ccc(NC(=O)CSc2nc3ccccc3c(=O)[nH]2)cc1 |  | inactive: 4.42%
CCCNC(=O)CCNS(=O)(=O)c1ccc2c(c1)c(=O)n(C)c(=O)n2C |  | inactive: 9.38% [at 46.1 µM]
Cc1cc(C(F)(F)F)n2nc(-c3cccs3)cc2n1 | inconclusive: 0.316 µM [inhibitor, partial curve, poor fit] | 
COc1ccc(/C=N/n2cnc3scc(-c4cccs4)c3c2=O)cc1OC | inconclusive: 4.47 µM [activator, full curve, poor fit] | 
Cc1ccc(Nc2nc(N)nc(CN3CCN(C(=O)c4ccco4)CC3)n2)cc1Cl | inconclusive: 5.17 µM [inhibitor, partial curve, poor fit] | 
Cc1cccc(Nc2nc(NCCCN3CCOCC3)nc(N)c2[N+](=O)[O-])c1 | inconclusive: 14.1 µM [inhibitor, partial curve, poor fit] | 
COc1ccc2nc(N=NC3=C(O)CC(C)(C)CC3=O)sc2c1 | active: 13 µM | 
O=C1CCC=C1C(O)c1ccccc1 (stereo not given) | inconclusive: 0.0008 µM [inhibitor] | 
Oc1c(Br)cc(CNC2CCCCC2)cc1Br |  | inactive: -10.5% [at 46.1 µM]
CC(=O)c1c[nH]c(C(=O)Nc2ccc(N3CCCCCC3)cc2)c1 |  | inactive: 0.47%
S=C(NCc1ccc(Cl)cc1Cl)NC1CCCCC1 | inconclusive: 10 µM [inhibitor, single point] | 
c1ccc(-c2cnnn2-c2ccccc2)cc1 | inconclusive: 1.26 µM [activator, single point] | 
O=c1oc(-c2ccccc2)nc2sc3c(c12)CCC3 |  | inactive: -2.25%
Cc1ccc([C@H]2C[C@@H](n3cc(C4CC4)nn3)[C@H](O)CN2C(=O)C2CCCCC2)cc1 | inconclusive: 0.0006 µM [inhibitor] | 
Clc1cccc(N2CCN(c3c4c(nc5nncn35)CCC4)CC2)c1 | inconclusive: 35.5 µM [inhibitor, single point] | 
COCCN(C(=O)CSc1n[nH]c(-c2ccc(OC)cc2)n1)c1c(N)n(Cc2ccccc2)c(=O)[nH]c1=O |  | inactive: -13.1%
CCc1ccc2oc(=O)cc(CN(C)Cc3ccccc3)c2c1 | inconclusive: 11.2 µM [inhibitor, partial curve, poor fit] | 
CCCn1c(SCC(=O)N2CCCc3ccccc32)nc2c1c(=O)n(C)c(=O)n2C |  | inactive: -26.4%
O=C(COc1ccccc1)Nc1ccc2nc(SCC(=O)N3CCc4ccccc43)sc2c1 |  | inactive: -2.04% [at 46.1 µM]
CCc1ccc(NC(=O)C(=O)c2ccccc2NC(C)=O)cc1 | inconclusive: 0.398 µM [activator, partial curve, poor fit] | 
O=C(NCc1ccc2c(c1)OCO2)C1CCN(c2ccc(S(=O)(=O)N3CCCC3)cc2)CC1 | inconclusive: 0.316 µM [inhibitor, full curve, poor fit] | 
CCOc1cc(/C=N/Nc2nnc(C)n2N)ccc1OC(C)=O | inconclusive: 35.5 µM [inhibitor, single point] | 

From PubChem BioAssay AID540276 (National Center for Advancing Translational Sciences (NCATS), 2011)
